37 targets from the supplement of paper PMC7666118 can be followed below.

Protein sequences, listed by entry. Tags and fused reporters are not part of them. Lines headed by an entry give the natural chain unless they say otherwise; changes in a name come on top.
UniProt P05423: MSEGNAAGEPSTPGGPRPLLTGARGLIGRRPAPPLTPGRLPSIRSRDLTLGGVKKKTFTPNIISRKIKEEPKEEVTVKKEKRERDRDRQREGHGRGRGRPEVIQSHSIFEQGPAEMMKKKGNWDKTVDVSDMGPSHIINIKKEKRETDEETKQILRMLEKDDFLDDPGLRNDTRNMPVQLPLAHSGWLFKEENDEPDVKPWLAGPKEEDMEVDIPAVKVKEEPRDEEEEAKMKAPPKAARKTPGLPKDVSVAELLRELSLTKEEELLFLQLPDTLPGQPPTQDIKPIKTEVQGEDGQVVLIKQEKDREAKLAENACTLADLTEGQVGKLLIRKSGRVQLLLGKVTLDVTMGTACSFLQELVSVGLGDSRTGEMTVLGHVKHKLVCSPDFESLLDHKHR
UniProt A6NDG6: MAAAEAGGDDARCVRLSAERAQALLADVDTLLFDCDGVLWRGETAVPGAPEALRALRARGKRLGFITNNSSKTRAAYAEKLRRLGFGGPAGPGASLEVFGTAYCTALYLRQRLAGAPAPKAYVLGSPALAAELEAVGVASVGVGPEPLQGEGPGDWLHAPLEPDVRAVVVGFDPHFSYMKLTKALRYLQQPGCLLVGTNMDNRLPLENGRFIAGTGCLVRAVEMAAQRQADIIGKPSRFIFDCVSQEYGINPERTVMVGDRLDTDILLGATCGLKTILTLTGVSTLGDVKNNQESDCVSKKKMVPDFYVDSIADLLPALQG
UniProt P05166: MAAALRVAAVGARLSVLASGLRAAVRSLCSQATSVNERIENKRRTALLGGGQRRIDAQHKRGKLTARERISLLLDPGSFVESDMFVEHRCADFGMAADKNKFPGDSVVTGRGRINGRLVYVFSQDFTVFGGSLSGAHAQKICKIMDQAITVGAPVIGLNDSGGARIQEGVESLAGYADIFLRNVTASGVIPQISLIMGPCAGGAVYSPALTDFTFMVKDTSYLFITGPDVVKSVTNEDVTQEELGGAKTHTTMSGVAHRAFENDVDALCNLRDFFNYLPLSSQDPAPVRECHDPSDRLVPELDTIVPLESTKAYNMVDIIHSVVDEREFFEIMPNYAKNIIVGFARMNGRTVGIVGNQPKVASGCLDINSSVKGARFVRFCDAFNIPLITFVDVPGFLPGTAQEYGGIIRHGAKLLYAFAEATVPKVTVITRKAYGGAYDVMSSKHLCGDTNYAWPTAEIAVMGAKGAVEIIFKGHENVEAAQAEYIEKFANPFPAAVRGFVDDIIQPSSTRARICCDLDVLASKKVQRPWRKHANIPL
UniProt Q5VV67: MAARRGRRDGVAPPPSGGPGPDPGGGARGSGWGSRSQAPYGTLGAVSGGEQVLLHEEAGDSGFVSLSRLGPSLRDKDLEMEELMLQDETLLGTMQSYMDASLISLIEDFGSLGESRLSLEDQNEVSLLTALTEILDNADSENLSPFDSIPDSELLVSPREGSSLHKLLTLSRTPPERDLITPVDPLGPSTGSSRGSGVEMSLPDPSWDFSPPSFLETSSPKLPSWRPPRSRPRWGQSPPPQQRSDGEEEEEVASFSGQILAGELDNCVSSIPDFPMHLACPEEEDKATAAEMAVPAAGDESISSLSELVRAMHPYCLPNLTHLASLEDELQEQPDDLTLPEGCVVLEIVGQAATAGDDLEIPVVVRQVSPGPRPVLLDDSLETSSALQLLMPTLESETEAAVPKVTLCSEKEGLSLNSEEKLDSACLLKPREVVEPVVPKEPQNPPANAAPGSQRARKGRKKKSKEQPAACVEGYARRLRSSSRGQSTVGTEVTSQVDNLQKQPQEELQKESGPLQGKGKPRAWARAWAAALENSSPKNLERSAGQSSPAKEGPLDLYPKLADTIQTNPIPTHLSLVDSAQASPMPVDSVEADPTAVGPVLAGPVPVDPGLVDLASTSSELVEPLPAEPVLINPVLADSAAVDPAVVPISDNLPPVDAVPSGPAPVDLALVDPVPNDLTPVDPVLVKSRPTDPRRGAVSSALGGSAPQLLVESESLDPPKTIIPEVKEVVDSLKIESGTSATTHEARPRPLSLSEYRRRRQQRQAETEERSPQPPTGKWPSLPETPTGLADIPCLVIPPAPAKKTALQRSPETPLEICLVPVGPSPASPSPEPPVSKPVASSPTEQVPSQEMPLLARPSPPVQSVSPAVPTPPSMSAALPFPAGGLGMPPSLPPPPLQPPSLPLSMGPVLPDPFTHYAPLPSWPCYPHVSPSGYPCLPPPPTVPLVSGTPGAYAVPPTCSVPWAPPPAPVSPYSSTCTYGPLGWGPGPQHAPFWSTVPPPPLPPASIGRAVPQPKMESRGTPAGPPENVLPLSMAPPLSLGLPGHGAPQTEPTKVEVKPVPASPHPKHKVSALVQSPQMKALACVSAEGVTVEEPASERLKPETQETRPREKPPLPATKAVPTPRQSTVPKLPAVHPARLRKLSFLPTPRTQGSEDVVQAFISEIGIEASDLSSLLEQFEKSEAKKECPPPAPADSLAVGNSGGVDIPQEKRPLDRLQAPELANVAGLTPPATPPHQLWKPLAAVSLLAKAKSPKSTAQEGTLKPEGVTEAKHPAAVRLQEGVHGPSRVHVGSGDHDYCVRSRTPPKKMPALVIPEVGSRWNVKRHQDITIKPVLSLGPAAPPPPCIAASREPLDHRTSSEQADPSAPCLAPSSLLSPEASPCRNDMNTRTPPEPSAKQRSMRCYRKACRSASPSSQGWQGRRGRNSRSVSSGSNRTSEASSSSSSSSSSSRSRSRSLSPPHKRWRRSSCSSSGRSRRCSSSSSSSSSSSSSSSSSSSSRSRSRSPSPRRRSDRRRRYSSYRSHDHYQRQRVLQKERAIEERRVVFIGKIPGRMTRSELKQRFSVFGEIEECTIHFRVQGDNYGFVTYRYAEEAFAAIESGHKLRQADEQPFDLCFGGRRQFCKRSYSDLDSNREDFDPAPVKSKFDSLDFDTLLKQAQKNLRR
UniProt Q13442: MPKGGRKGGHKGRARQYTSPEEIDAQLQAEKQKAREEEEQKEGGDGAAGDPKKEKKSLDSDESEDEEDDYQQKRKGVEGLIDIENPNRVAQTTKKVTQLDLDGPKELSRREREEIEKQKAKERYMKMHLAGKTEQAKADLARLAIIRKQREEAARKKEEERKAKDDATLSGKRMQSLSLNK
UniProt Q6EEV4: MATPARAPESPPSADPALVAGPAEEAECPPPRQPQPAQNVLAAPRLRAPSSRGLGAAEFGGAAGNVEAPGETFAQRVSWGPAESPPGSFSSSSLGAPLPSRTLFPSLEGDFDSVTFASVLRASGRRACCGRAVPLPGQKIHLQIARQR
UniProt O60925, whole entry: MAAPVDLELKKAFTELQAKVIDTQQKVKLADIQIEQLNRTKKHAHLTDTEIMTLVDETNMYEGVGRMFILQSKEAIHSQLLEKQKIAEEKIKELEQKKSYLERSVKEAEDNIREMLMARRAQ
UniProt Q96HC4: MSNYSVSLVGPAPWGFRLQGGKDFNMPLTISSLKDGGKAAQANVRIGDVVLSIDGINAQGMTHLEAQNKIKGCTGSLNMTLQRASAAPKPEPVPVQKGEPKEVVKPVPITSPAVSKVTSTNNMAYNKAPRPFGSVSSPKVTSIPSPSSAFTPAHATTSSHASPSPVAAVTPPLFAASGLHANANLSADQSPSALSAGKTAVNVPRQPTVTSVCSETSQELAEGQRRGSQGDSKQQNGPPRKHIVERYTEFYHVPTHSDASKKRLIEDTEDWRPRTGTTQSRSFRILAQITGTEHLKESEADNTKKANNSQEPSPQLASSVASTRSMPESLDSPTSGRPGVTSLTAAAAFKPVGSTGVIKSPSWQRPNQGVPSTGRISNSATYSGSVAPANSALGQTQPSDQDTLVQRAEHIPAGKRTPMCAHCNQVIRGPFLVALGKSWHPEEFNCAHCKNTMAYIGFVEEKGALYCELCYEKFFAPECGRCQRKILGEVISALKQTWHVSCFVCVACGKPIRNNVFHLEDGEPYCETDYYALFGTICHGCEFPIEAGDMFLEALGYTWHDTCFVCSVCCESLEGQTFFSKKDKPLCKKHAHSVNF
UniProt Q13356: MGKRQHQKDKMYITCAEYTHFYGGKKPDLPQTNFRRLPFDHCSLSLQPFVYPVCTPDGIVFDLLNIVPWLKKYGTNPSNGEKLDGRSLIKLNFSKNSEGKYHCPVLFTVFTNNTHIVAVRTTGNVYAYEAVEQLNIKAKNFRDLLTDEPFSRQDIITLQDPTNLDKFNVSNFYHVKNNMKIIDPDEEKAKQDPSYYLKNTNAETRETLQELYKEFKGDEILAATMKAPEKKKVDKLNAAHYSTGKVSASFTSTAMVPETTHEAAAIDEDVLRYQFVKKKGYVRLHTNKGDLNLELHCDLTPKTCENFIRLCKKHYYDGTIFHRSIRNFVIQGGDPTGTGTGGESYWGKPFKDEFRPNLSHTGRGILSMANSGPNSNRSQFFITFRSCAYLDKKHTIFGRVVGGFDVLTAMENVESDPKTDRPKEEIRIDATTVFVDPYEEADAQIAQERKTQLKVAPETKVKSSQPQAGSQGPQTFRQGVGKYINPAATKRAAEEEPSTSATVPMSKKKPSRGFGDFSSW
UniProt Q16513: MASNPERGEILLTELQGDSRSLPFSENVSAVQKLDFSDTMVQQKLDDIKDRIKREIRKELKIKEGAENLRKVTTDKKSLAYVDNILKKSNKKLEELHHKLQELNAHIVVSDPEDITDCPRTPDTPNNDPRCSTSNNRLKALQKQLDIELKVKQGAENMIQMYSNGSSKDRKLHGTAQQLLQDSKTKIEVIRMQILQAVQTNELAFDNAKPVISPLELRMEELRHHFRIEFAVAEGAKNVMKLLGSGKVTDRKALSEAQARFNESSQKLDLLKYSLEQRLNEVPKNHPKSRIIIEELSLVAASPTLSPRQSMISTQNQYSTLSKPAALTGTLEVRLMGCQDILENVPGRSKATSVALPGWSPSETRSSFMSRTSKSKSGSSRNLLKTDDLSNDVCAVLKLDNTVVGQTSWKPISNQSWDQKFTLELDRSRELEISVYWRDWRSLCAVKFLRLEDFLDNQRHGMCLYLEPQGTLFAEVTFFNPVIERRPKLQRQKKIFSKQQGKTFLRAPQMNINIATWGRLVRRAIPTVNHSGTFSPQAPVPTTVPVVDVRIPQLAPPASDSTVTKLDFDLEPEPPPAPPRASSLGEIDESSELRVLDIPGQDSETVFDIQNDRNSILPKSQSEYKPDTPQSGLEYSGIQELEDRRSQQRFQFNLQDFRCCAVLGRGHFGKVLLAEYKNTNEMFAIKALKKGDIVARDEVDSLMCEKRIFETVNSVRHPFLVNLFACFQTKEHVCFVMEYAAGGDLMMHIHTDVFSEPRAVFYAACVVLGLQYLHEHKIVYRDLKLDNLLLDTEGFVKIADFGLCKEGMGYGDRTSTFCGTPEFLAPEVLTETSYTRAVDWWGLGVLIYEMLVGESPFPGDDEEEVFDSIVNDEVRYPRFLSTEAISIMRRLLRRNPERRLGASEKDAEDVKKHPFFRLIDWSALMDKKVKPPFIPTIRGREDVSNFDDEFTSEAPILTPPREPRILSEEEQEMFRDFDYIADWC
UniProt Q9Y570: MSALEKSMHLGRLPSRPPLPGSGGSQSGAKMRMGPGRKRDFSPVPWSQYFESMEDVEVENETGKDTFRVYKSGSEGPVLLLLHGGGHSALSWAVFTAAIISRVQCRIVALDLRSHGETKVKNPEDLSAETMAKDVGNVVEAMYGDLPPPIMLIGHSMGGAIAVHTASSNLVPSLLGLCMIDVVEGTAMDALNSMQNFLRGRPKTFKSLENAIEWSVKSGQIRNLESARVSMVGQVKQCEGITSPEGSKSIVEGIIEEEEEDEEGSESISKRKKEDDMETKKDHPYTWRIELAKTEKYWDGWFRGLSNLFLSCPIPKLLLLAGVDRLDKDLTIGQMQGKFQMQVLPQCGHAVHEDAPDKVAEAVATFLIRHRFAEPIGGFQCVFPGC
UniProt Q8IZ21: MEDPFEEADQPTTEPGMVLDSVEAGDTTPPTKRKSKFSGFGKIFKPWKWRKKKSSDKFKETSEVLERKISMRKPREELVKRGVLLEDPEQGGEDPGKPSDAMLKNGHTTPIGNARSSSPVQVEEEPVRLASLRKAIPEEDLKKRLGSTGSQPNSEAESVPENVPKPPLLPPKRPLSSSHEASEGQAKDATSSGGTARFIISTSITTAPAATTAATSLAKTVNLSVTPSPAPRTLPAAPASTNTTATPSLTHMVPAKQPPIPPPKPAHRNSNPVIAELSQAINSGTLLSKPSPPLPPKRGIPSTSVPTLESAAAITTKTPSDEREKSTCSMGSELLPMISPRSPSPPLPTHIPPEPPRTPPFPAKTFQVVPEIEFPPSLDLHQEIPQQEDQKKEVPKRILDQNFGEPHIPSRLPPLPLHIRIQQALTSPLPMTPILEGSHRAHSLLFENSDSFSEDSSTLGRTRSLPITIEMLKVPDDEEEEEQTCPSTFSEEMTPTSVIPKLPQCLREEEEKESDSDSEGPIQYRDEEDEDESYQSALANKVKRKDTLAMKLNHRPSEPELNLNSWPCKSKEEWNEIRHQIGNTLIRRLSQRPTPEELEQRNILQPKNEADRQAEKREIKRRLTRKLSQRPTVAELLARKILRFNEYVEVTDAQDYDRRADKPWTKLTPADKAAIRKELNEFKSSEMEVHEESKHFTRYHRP

The list shows a part of the results.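 The calls were made as follows: active = dose-dependent thermal stabilisation significant by F-test of dose-response against flat model at 10% FDR; inactive = not significant.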

Compound in the test: Nc1nc2c(ncn2[C@@H]2O[C@H](COP(=O)(O)OP(=O)(O)OP(=O)(O)O)[C@@H](O)[C@H]2O)c(=O)[nH]1
Put plainly: dose-dependent thermal stabilisation call (2D-TPP, DLPTP, 10% FDR) (binary (1 = stabilised)); higher = stabilised by the compound. Conditions: system: Jurkat gel-filtered lysate; concentration range 1-500 µM.
For POLR3D (UniProt P05423), the “dose-dependent thermal stabilisation call” value was inactive: 0.

As for PGP (UniProt A6NDG6), the “dose-dependent thermal stabilisation call” value is inactive: 0. For PHF21A (UniProt Q96BD5), the “dose-dependent thermal stabilisation call” value was inactive: 0.

On to POLR2E (UniProt P19388), for which the “dose-dependent thermal stabilisation call” value was inactive: 0. PRCP (UniProt P42785): the “dose-dependent thermal stabilisation call” value is inactive: 0. The figure for PRDX2 (UniProt P32119) is inactive: 0; for PGGHG (UniProt Q32M88) it is inactive: 0.

With PCCB (UniProt P05166), the “dose-dependent thermal stabilisation call” value was inactive: 0. Regarding PPM1F (UniProt P49593), the “dose-dependent thermal stabilisation call” value was inactive: 0. In the case of PDCD5 (UniProt O14737), the “dose-dependent thermal stabilisation call” value was inactive: 0. As for PPIL1 (UniProt Q9Y3C6), the figure is inactive: 0. As for PMM1 (UniProt Q92871), the “dose-dependent thermal stabilisation call” value is inactive: 0. Turning to PLEKHA2 (UniProt Q9HB19), the “dose-dependent thermal stabilisation call” value was inactive: 0. The figure for POLR2A (UniProt P24928) is active: 1; for PCBP1 (UniProt Q15365) it is inactive: 0; for PPRC1 (UniProt Q5VV67) it is inactive: 0. As to PDAP1 (UniProt Q13442), the “dose-dependent thermal stabilisation call” value was inactive: 0. As for PKNOX1 (UniProt P55347), the figure is inactive: 0.

As to POLR2M (UniProt Q6EEV4), the “dose-dependent thermal stabilisation call” value was inactive: 0. The figure for PIP4K2C (UniProt Q8TBX8) is active: 1. The figure for PBLD (UniProt P30039) is inactive: 0. With POGZ (UniProt Q7Z3K3), the “dose-dependent thermal stabilisation call” value is inactive: 0.

On to PFDN1 (UniProt O60925), for which the “dose-dependent thermal stabilisation call” value is inactive: 0. Take PIK3R1 (UniProt P27986): the “dose-dependent thermal stabilisation call” value is inactive: 0.

On to PPM1H (UniProt Q9ULR3), for which the “dose-dependent thermal stabilisation call” value was inactive: 0. Take POLR3A (UniProt O14802): the “dose-dependent thermal stabilisation call” value is inactive: 0. As for PDLIM5 (UniProt Q96HC4), the figure is inactive: 0; as for PDXK (UniProt O00764), inactive: 0; as for PELI2 (UniProt Q9HAT8), inactive: 0. As for PPIL2 (UniProt Q13356), the figure is active: 1; as for PKN2 (UniProt Q16513), active: 1; as for PPME1 (UniProt Q9Y570), inactive: 0. For PPCS (UniProt Q9HAB8), the “dose-dependent thermal stabilisation call” value was inactive: 0. As for PIH1D1 (UniProt Q9NWS0), the figure is inactive: 0; as for PHACTR4 (UniProt Q8IZ21), inactive: 0; as for PDIA6 (UniProt Q15084), inactive: 0.

In the case of PPP1CB (UniProt P62140), the “dose-dependent thermal stabilisation call” value is inactive: 0.
